No constants are given. Whether binding was seen depends on the method and setting. In cells and extracts the contact can be indirect. Some results given as binding are weak or reduced against the parent protein; the word gives no strength.
Target: T1, Integrin α11 (human (endogenous in MCF-7 and derived TAMR/ADR cells)) (UniProt Q9UKX5)
T1 sequence: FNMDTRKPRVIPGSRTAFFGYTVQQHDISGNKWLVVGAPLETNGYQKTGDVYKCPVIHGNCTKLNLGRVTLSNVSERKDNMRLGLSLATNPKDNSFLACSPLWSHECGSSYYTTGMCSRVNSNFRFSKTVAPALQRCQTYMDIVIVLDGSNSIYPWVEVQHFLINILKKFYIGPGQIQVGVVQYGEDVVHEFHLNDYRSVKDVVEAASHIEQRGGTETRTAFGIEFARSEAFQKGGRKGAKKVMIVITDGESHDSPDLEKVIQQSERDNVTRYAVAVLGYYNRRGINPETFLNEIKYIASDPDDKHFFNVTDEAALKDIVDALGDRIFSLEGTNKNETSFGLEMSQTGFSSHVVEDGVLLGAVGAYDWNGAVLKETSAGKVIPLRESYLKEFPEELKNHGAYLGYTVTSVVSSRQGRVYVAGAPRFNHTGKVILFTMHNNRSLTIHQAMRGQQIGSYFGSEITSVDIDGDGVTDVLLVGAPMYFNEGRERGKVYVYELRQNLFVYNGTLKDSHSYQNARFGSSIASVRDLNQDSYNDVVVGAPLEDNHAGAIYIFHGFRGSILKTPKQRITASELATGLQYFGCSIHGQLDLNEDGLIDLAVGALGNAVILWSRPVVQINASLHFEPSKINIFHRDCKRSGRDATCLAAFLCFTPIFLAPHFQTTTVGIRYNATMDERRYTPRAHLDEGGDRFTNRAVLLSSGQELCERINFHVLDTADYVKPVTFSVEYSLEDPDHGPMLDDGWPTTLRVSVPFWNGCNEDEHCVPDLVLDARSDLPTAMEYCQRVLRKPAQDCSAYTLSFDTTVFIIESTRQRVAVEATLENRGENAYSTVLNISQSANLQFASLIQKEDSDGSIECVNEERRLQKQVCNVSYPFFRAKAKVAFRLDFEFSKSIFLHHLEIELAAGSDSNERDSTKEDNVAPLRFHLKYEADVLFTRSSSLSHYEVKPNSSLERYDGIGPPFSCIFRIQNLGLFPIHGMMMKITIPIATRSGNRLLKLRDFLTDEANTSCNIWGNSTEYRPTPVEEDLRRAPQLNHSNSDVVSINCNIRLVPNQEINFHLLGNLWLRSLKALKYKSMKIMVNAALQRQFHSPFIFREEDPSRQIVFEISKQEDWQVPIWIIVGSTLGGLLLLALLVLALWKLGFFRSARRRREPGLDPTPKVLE
Test: co-IP; 100 µg total proteins immunoprecipitated with IP-grade integrin α11 antibody or IgG (1 mg/mL), 16 h at 4 °C; Protein A agarose beads 4 h at 4 °C; washed with PBS; western blot for integrin β1

Chains of the proteins cited; added tags and fusions are not shown. Lines headed by an entry give the natural chain unless they say otherwise; changes in a name come on top.
UniProt P05556: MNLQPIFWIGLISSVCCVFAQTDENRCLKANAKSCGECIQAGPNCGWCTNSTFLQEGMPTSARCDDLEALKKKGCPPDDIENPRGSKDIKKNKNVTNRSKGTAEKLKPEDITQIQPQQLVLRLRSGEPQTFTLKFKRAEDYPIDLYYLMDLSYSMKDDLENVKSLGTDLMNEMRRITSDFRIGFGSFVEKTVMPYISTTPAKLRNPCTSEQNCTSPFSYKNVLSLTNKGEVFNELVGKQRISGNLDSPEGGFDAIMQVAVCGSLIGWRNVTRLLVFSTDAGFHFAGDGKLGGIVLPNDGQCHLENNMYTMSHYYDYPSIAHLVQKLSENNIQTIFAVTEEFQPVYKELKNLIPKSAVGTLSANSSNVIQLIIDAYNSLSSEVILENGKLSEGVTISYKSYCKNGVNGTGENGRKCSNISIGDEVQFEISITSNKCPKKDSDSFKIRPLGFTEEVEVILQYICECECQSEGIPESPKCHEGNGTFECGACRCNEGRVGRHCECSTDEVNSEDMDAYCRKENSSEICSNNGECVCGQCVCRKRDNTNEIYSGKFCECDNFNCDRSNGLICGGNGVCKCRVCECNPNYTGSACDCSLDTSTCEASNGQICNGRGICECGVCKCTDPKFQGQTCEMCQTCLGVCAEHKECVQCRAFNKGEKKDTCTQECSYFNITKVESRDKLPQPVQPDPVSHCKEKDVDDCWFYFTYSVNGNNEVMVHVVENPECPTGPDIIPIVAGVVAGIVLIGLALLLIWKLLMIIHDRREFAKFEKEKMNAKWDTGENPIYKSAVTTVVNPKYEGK

binding: binds
Substance: Integrin β1 (from UniProt P05556 21-798) (receptor)

Reference: paper PMC11046805
